Results from cells or extracts need not show a direct contact.

Chains of the proteins cited; added tags and fusions are not shown. Chains listed by the source or under a name are the forms on record and can include a tag or linker.
GluA2Qflip AMPA receptor subunit (Rattus norvegicus), one chain, as listed by the source: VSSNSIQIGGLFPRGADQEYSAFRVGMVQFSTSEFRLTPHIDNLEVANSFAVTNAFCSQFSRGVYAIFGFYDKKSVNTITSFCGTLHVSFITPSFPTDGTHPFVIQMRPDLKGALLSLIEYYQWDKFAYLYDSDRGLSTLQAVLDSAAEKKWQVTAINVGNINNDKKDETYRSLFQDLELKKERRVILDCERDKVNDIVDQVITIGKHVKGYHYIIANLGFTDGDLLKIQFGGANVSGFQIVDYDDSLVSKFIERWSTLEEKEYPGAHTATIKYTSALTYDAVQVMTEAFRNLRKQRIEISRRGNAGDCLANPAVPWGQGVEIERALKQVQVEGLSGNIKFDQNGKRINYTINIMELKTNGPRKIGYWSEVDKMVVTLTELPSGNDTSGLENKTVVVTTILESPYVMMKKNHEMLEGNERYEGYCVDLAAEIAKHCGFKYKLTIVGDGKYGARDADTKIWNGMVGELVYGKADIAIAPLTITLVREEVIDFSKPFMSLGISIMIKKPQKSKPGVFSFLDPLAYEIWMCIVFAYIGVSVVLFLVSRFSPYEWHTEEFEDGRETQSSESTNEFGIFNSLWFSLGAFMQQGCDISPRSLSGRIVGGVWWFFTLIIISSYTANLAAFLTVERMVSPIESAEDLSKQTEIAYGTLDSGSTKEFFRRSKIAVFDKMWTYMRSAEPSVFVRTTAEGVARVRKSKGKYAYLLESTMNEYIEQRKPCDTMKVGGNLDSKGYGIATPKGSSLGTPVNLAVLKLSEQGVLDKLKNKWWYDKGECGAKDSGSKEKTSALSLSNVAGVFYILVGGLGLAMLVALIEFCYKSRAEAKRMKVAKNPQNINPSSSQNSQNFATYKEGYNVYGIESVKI

This series has as its system GluA2Qflip AMPA receptor subunit (Rattus norvegicus). The series is described as follows: competition with a labelled probe. Particulars: binding unaffected by competitive inhibitor NBQX, data not shown; protein in a lysate after overexpression.

On to “GGGAGAAUUCAACUGCCAUCUAGGCAGAAGUGUAAUAGCCAACGGUGCCAGUCCGAAACGGAUCGUUAGAGCAUCAGUACUACAAGCUUCUGGACUCGGU [AF1422]”, for which the binding result is “binds”.
